In the supplement of paper PMC12823440, “Inhibitors supercharge kinase turnover through native proteolytic circuits” (Nature, 2025):
Structures can show the parent of a compound that is named as a salt. The list shows a part of the results. The calls rarely recur for the same compound in another form.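 Kinases, fused to nanoluciferase, were expressed in K562 cells; luminescence was measured every 4 h from 2 to 18 h as percent of control (DMSO = 100%, positive control = 0%). A time point is decreased if signal falls significantly (2 sigma). Hits were called by the authors by a rule that is not shown; the count of time points alone does not decide it.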

The chains behind the UniProt entries cited, without tags or fusion partners. Where a name states a change or a piece, a line headed by the entry shows the natural chain unless it says otherwise.
UniProt Q8IWU2: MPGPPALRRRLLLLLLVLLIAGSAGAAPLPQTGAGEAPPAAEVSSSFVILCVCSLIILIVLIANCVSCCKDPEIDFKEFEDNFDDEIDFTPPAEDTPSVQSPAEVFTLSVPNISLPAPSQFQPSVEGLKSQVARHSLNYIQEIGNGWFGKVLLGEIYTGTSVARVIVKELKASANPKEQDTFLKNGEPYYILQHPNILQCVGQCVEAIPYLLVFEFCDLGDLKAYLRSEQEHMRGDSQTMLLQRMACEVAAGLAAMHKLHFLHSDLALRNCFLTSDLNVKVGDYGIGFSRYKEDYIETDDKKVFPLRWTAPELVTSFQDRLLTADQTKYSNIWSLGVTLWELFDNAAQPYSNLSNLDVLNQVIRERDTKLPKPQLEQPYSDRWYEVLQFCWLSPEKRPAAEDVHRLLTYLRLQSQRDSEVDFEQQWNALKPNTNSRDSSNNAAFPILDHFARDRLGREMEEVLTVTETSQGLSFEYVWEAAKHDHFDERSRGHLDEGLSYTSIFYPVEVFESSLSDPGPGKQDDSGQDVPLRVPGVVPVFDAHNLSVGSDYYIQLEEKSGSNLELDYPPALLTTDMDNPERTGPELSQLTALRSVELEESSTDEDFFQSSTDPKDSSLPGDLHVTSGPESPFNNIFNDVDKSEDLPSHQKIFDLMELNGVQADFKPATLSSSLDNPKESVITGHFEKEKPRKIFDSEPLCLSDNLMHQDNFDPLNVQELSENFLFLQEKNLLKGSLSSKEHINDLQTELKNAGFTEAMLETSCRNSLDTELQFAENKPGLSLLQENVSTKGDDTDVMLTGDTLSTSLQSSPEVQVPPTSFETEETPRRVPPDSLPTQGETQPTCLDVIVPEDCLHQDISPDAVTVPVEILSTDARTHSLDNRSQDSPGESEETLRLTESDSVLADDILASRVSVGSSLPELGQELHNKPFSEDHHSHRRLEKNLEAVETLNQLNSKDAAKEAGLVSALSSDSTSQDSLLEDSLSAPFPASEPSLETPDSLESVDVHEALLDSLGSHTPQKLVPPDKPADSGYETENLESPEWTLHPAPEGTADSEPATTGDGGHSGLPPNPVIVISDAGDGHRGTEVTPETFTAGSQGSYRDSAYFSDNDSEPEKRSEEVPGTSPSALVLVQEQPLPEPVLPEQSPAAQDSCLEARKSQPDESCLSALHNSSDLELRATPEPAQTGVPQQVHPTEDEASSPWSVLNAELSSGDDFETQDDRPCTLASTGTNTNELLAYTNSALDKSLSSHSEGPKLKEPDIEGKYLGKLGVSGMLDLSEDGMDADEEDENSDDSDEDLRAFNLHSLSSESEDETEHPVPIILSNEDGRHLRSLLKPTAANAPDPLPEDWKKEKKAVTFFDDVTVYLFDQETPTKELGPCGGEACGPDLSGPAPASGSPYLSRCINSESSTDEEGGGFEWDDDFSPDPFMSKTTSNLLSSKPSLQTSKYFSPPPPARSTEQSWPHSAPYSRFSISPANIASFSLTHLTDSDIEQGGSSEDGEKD
UniProt P07948: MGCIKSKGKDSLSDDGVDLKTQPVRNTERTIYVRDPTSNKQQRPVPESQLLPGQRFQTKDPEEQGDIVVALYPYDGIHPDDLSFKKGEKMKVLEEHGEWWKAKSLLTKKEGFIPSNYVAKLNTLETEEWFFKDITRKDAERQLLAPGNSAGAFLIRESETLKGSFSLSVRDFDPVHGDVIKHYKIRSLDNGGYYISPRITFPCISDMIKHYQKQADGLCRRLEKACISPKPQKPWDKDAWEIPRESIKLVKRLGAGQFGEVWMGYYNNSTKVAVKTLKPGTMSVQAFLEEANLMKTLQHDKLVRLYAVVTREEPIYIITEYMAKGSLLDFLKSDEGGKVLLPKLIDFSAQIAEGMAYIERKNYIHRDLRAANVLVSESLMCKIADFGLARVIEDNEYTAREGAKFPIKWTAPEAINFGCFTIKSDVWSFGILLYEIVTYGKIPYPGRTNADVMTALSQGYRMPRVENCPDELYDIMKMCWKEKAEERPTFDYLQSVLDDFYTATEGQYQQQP
UniProt Q12851: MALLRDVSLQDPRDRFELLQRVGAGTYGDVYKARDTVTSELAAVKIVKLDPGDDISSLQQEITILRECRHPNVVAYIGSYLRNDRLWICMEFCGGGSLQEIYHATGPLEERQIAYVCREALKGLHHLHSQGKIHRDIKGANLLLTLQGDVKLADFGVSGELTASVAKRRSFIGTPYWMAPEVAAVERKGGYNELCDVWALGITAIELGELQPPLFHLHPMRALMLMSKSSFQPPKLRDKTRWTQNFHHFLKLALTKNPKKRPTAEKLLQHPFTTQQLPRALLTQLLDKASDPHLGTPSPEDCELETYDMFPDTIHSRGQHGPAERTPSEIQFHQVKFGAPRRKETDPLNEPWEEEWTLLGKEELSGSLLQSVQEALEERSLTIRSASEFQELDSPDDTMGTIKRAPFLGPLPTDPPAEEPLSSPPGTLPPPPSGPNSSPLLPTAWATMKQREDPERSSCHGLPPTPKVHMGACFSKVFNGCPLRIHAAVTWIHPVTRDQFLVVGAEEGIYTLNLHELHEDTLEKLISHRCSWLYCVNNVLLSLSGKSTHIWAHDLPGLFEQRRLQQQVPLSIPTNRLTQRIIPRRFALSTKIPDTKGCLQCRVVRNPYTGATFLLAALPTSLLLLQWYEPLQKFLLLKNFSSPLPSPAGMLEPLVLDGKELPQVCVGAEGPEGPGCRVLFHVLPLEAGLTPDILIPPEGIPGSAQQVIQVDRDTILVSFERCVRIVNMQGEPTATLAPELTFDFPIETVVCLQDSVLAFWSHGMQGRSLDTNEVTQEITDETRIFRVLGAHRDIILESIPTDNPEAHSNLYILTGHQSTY
UniProt P28482, whole entry: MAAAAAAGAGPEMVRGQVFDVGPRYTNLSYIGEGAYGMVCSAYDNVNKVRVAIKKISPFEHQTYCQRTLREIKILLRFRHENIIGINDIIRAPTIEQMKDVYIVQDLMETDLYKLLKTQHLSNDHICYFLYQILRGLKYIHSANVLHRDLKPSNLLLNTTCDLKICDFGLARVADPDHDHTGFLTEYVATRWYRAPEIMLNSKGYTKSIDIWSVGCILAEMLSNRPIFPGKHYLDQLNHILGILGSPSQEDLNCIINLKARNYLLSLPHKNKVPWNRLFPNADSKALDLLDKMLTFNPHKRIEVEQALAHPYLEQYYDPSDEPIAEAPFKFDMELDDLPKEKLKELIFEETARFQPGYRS
UniProt P31152, whole entry: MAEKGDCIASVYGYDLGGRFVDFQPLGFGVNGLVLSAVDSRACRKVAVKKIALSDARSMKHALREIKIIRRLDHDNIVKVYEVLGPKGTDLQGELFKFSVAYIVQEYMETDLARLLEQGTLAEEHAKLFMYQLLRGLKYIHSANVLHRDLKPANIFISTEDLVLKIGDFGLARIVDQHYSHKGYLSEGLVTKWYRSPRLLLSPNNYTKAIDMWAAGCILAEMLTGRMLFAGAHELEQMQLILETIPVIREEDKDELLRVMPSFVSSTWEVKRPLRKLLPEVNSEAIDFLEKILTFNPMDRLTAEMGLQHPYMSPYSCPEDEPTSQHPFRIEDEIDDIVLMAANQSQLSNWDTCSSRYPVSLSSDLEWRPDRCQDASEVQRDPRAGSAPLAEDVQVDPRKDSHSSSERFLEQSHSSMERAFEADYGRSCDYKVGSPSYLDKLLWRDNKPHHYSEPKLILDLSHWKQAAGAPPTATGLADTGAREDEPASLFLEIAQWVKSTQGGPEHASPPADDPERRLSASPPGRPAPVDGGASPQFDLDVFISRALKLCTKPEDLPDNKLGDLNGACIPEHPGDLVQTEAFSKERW
UniProt P49137, whole entry, looked up: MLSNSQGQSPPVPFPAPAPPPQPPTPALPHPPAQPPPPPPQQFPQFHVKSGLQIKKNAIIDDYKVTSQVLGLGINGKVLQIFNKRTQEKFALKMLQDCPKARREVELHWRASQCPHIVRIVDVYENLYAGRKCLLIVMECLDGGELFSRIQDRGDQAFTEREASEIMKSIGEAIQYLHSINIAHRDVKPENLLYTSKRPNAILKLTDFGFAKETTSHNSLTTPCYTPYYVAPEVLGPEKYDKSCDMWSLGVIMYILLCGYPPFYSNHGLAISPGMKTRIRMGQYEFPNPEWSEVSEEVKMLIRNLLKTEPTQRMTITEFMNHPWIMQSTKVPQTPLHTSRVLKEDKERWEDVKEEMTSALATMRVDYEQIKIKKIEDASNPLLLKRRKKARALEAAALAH
UniProt Q9BUB5: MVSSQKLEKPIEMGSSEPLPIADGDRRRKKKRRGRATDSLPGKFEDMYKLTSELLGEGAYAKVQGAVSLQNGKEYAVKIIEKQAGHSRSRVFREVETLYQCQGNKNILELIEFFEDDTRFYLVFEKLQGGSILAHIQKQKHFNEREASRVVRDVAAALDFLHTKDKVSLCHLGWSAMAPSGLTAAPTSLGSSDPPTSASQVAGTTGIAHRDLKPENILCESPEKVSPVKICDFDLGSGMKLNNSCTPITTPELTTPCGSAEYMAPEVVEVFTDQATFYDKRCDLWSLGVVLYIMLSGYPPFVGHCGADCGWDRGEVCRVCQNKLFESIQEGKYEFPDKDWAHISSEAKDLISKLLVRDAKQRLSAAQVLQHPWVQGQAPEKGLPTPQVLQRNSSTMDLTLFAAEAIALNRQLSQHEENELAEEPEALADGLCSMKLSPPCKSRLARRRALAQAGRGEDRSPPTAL
UniProt Q16620, whole entry, looked up: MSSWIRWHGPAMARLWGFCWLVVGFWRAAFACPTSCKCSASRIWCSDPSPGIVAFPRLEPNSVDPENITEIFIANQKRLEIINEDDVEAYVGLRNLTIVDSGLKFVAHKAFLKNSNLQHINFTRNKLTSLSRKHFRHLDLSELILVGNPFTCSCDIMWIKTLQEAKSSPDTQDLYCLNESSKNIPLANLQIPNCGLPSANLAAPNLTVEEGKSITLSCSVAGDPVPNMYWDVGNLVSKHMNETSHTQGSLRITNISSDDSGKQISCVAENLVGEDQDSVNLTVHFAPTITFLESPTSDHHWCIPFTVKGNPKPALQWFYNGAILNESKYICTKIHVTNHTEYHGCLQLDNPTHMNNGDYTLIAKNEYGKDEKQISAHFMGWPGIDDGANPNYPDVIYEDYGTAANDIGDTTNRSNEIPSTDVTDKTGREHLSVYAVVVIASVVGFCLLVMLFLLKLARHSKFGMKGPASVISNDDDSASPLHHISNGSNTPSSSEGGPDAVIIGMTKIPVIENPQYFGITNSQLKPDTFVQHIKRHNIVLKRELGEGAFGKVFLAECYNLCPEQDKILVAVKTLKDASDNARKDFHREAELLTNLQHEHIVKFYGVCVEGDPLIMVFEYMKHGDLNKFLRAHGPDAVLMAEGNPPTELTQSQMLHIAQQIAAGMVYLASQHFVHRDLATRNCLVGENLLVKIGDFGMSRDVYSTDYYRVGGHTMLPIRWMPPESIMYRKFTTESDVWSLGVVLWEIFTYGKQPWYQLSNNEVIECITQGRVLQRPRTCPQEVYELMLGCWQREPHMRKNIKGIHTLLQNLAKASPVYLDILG

What was measured:
Assay in all cases: number of time points (of 5) at which kinase-Nluc abundance scored as decreased, DMSO-normalised (count); higher = more persistent destabilization
Conditions in all cases: K562; 2-18 h
LMTK2 = LMTK2 (UniProt Q8IWU2)
LYN = LYN (UniProt P07948)
MAP2K1 = MAP2K1 (UniProt Q02750)
MAP2K2 = MAP2K2 (UniProt P36507)
MAP4K2 = MAP4K2 (UniProt Q12851)
MAPK1 = MAPK1 (UniProt P28482)
MAPK4 = MAPK4 (UniProt P31152)
MAPKAPK2 = MAPKAPK2 (UniProt P49137)
MKNK1 = MKNK1 (UniProt Q9BUB5)
NTRK2 = NTRK2 (UniProt Q16620)

| SMILES | number of time points (LMTK2) | number of time points (LYN) | number of time points (MAP2K1) | number of time points (MAP2K2) | number of time points (MAP4K2) | number of time points (MAPK1) | number of time points (MAPK4) | number of time points (MAPKAPK2) | number of time points (MKNK1) | number of time points (NTRK2) |
| --- | --- | --- | --- | --- | --- | --- | --- | --- | --- | --- |
| Nc1nc2c(ncn2COCCO)c(=O)[nH]1 [Acyclovir] (10 µM) | 0 | 0 | 0 | 0 | 0 | 0 | 0 | 0 | 0 | 0 |
| CN(C)CCCn1cc(C2=C(c3c[nH]c4ccccc34)C(=O)NC2=O)c2ccccc21 [Bisindolylmaleimide I] (2.5 µM) | 0 | 0 | 0 | 0 | 0 | 0 | 0 | 0 | 0 | 0 |
| O=C(Nc1nccs1)C(c1cc(F)ccc1O)N1Cc2ccc(-c3ccc(N4CCNCC4)cc3)cc2C1=O (racemic) (10 µM) | 0 | 1 | 0 | 0 | 0 | 0 | 1 | 0 | 0 | 0 |
| CCc1ccc(NC(=O)Nc2ccccc2)cc1 (10 µM) | 1 | 0 | 0 | 0 | 0 | 0 | 0 | 0 | 1 | 0 |
| Cn1cc(C2=C(c3c4n(c5ccccc35)CCC(CN)C4)C(=O)NC2=O)c2ccccc21 (stereo not given) [Bisindolylmaleimide X (hydrochloride)] (2.5 µM) | 0 | 0 | 0 | 0 | 0 | 0 | 0 | 0 | 0 | 0 |
| N#Cc1c[nH]c2ccc(-c3ccc(-c4c(O)cccc4O)cc3)cc12 (10 µM) | 0 | 0 | 0 | 0 | 0 | 0 | 0 | 0 | 0 | 0 |
| CCOC(=O)C1=C[C@]2(CC)CCCN3CCc4c(n1c1ccccc41)[C@@H]32 [Vinpocetine] (10 µM) | 0 | 0 | 0 | 0 | 0 | 0 | 0 | 0 | 0 | 0 |
| COc1ccc(COc2cc3oc(=O)c4cc(C(C)O)ccc4c3cc2OC)cc1 (stereo not given) [Palomid 529] (2.5 µM) | 0 | 0 | 0 | 0 | 0 | 0 | 0 | 0 | 0 | 0 |
| N#Cc1cn([C@@H]2O[C@H](CO)[C@@H](O)[C@H]2O)c2nc[nH]c(=O)c12 [Jaspamycin] (10 µM) | 0 | 0 | 0 | 0 | 0 | 0 | 0 | 0 | 0 | 0 |
| CC(C)[C@H](CO)Nc1nc(Nc2ccc(C(=O)O)c(Cl)c2)c2ncn(C(C)C)c2n1 [Purvalanol B] (10 µM) | 0 | 0 | 0 | 0 | 0 | 0 | 0 | 0 | 0 | 0 |
| O=C(Nc1ncc(SCCN2CCCC2)s1)[C@]1(c2ccc(S(=O)(=O)C3CC3)cc2)C[C@H]1C1CCCCC1 [Globalagliatin] (2.5 µM) | 0 | 0 | 0 | 0 | 0 | 0 | 0 | 0 | 0 | 0 |
| CC(C)Cn1cc(C#N)c2cc(Oc3ccc(NC(=O)[C@@H]4CCCN4)cc3)ccc21 (10 µM) | 0 | 0 | 0 | 0 | 0 | 0 | 0 | 0 | 0 | 0 |
| C[C@@H](Nc1cc(F)cc(F)c1)c1cc(C(=O)N(C)C)cc2c(=O)cc(N3CCOCC3)oc12 (10 µM) | 0 | 0 | 0 | 0 | 0 | 0 | 0 | 0 | 0 | 0 |
| CCn1c(-c2nonc2N)nc2c(C#CCO)ncc(OCCCN)c21 [AKT Kinase Inhibitor] (10 µM) | 0 | 0 | 0 | 0 | 0 | 0 | 0 | 0 | 0 | 0 |
| C[C@@H](N)COc1ccc(-c2cnc3ccc(N[C@H](C)c4cccc(F)c4)nn23)cc1 [Taletrectinib] (2.5 µM) | 0 | 0 | 0 | 0 | 0 | 0 | 0 | 0 | 0 | 0 |
| C=CC(=O)Nc1cc(C(=O)NC)cc(-c2n[nH]c3ccccc23)c1 (10 µM) | 1 | 0 | 0 | 0 | 0 | 0 | 0 | 0 | 0 | 0 |
| C[C@]1(O)C[C@@](N)(c2ccc(-c3nc4n(c3-c3ccccc3)COc3ccncc3-4)cc2)C1 [TAS-117 (hydrochloride)] (10 µM) | 0 | 0 | 0 | 0 | 0 | 0 | 0 | 0 | 0 | 0 |

Full records as entered above. Values in the order: number of time points (LMTK2) | number of time points (LYN) | number of time points (MAP2K1) | number of time points (MAP2K2) | number of time points (MAP4K2) | number of time points (MAPK1) | number of time points (MAPK4) | number of time points (MAPKAPK2) | number of time points (MKNK1) | number of time points (NTRK2)
`CCOC(=O)C1=C[C@]2(CC)CCCN3CCc4c(n1c1ccccc41)[C@@H]32` [Vinpocetine] (10 µM) is entered as 0 | 0 | 0 | 0 | 0 | 0 | 0 | 0 | 0 | 0
`COc1ccc(COc2cc3oc(=O)c4cc(C(C)O)ccc4c3cc2OC)cc1` (stereo not given) [Palomid 529] (2.5 µM) is entered as 0 | 0 | 0 | 0 | 0 | 0 | 0 | 0 | 0 | 0
`C[C@]1(O)C[C@@](N)(c2ccc(-c3nc4n(c3-c3ccccc3)COc3ccncc3-4)cc2)C1` [TAS-117 (hydrochloride)] (10 µM) is entered as 0 | 0 | 0 | 0 | 0 | 0 | 0 | 0 | 0 | 0

The list continues.

| SMILES | number of time points (LMTK2) | number of time points (LYN) | number of time points (MAP2K1) | number of time points (MAP2K2) | number of time points (MAP4K2) | number of time points (MAPK1) | number of time points (MAPK4) | number of time points (MAPKAPK2) | number of time points (MKNK1) | number of time points (NTRK2) |
| --- | --- | --- | --- | --- | --- | --- | --- | --- | --- | --- |
| CC(C)c1cnn2c(NCc3ccccc3)cc(NCCCCCCN)nc12 [BS-181 (hydrochloride)] (10 µM) | 0 | 0 | 0 | 0 | 0 | 0 | 0 | 0 | 0 | 0 |
| COc1ccc(C(=O)c2cn(C(C)C)c3ncnc(N)c23)cc1NC(=O)Nc1ccc(Cl)cc1Cl (10 µM) | 0 | 0 | 0 | 0 | 0 | 0 | 0 | 0 | 0 | 0 |
| COc1cc(OC)c(/C=C/S(=O)(=O)Cc2ccc(OC)c(NCC(=O)O)c2)c(OC)c1 [Rigosertib (sodium)] (10 µM) | 1 | 1 | 0 | 0 | 0 | 0 | 0 | 0 | 1 | 0 |
| C[C@@H]1O[C@@H](O[C@H]2[C@H](OC(=O)[C@]34CCC(C)(C)C[C@H]3C3=CC[C@@H]5[C@@]6(C)C[C@H](O)[C@H](O[C@@H]7O[C@H](CO)[C@@H](O)[C@H](O)[C@H]7O)C(CO)(CO)[C@@H]6CC[C@@]5(C)[C@]3(C)C[C@H]4O)OC[C@H](O)[C@@H]2O)[C@H](O)[C@H](O)[C@H]1O[C@@H]1OC[C@@H](O)[C@H](O[C@@H]2OC[C@](O)(CO)[C@H]2O)[C@H]1O [Platycodin D] (10 µM) | 0 | 0 | 0 | 0 | 0 | 0 | 0 | 0 | 0 | 0 |
| Cc1cc(=O)[nH]c(=S)[nH]1 [Methylthiouracil] (10 µM) | 0 | 0 | 0 | 0 | 0 | 0 | 0 | 0 | 0 | 0 |
| C=CC(=O)N1CCC[C@@H](n2c(=O)n(-c3ccc(Oc4ccccc4)cc3)c3c(N)nccc32)C1 [Tolebrutinib] (10 µM) | 0 | 0 | 0 | 0 | 0 | 0 | 0 | 0 | 0 | 0 |
| Cc1nc(Nc2ncc(C(=O)Nc3c(C)cccc3Cl)s2)cc(N2CCN(C(=O)CCCCCCC(=O)N[C@H](C(=O)N3C[C@H](O)C[C@H]3C(=O)NCc3ccc(-c4scnc4C)cc3)C(C)(C)C)CC2)n1 (2.5 µM) | 1 | 2 | 0 | 0 | 0 | 1 | 1 | 2 | 1 | 1 |
| CNC[C@@H](NC(=O)c1ccc(-c2nc([C@H]3CC[C@H](O)[C@@H](F)C3)cnc2N)cc1F)c1cc(F)cc(Br)c1 [Rineterkib] (10 µM) | 0 | 0 | 0 | 0 | 0 | 0 | 0 | 0 | 0 | 0 |
| COC(=O)[C@]1(C)CC[C@]2(C(=O)O[C@@H]3O[C@H](CO)[C@@H](O)[C@H](O)[C@H]3O)CC[C@]3(C)C(=CC[C@@H]4[C@@]5(C)C[C@H](O)[C@H](O[C@@H]6OC[C@@H](O[C@@H]7O[C@H](CO)[C@@H](O)[C@H](O)[C@H]7O)[C@H](O)[C@H]6O)[C@@](C)(CO)C5CC[C@]43C)[C@H]2C1 (stereo not given in full) [Esculentoside H] (10 µM) | 0 | 0 | 0 | 0 | 0 | 0 | 0 | 0 | 0 | 0 |
| Cc1cccc(-c2[nH]c(C(C)(C)C)nc2-c2ccc3c(c2)OCO3)n1 (2.5 µM) | 0 | 0 | 0 | 0 | 0 | 0 | 0 | 0 | 0 | 0 |
| CC(C)(C)NS(=O)(=O)c1cncc(-c2cc(F)c3nc(N)nn3c2)c1 (10 µM) | 0 | 0 | 0 | 0 | 0 | 0 | 0 | 0 | 0 | 0 |
| C=CC(=O)Nc1cccc(Nc2nc(Nc3ccc(Oc4ccnc(C(=O)NC)c4)cc3)ncc2F)c1 (2.5 µM) | 1 | 0 | 0 | 0 | 0 | 0 | 0 | 0 | 1 | 0 |
| CC[C@@H]1CN(C(=O)NCC(F)(F)F)C[C@@H]1c1cnc2cnc3[nH]ccc3n12 [Upadacitinib] (10 µM) | 0 | 0 | 0 | 0 | 0 | 0 | 0 | 0 | 0 | 0 |
| C[C@H]1CNC(=O)c2cnn3ccc(nc23)N[C@H](C)c2cc(F)ccc2O1 [Repotrectinib] (2.5 µM) | 0 | 0 | 0 | 0 | 0 | 0 | 0 | 0 | 0 | 0 |
| CN1CCN(c2ccc(NC(=O)c3ccc(C#N)o3)c(N3CCCCC3)c2)CC1 (10 µM) | 0 | 0 | 0 | 0 | 0 | 0 | 0 | 0 | 0 | 0 |
| CNC(=O)c1c(C)oc2cc(Oc3ncnc4cc(OC)c(OC)cc34)ccc12 [Fruquintinib] (10 µM) | 0 | 0 | 0 | 0 | 0 | 0 | 0 | 0 | 0 | 0 |
| COC[C@H]1Cn2cc(-c3nc(Nc4ccnn4C)ncc3C)nc2C(=O)N1Cc1ccc(F)c(F)c1 (10 µM) | 0 | 0 | 0 | 0 | 0 | 0 | 0 | 0 | 0 | 0 |
